Data as given in publication doi:10.1101/2023.01.14.524051.
Results are given in words; binding and its absence hold for the method and conditions named. Binding seen in cells or lysates may run through a third protein. Some results given as binding are weak or reduced against the parent protein; the word gives no strength. For some of these results: Where a sequence is shown, tags or fusion partners need not be part of it.

By UniProt entry, the sequences of proteins in these tests, tags left out.
UniProt P21730: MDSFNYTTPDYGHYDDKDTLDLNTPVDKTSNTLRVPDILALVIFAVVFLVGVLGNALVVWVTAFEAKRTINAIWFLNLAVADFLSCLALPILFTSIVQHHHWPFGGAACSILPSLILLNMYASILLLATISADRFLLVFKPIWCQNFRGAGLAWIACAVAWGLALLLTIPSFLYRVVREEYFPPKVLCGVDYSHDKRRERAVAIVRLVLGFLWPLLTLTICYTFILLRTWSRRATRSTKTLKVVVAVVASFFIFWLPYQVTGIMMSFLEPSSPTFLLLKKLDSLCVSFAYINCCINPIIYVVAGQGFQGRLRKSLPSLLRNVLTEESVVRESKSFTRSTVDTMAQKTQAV
UniProt P49407: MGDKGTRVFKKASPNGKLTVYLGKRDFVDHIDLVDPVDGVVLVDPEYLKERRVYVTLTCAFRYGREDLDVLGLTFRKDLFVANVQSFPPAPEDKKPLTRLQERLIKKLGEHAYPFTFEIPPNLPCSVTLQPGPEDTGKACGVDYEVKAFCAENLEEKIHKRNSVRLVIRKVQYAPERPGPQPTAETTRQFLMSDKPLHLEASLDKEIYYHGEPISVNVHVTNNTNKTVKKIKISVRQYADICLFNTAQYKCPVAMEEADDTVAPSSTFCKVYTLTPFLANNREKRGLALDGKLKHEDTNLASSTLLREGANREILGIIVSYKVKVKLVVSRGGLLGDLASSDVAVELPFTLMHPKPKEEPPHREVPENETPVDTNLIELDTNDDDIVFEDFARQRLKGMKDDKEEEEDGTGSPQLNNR
UniProt P32121: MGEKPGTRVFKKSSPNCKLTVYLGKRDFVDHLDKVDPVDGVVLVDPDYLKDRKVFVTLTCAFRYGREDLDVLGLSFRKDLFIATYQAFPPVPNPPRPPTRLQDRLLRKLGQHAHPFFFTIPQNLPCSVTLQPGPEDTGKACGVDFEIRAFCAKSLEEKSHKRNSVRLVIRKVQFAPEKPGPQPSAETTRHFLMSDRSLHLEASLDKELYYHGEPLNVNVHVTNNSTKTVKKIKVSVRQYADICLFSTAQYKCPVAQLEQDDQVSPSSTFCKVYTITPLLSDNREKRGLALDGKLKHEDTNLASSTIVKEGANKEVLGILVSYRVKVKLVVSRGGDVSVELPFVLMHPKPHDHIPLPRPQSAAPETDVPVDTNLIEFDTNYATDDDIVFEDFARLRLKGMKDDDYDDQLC

Columns and labels:
[1] = molecular target: C-terminally SmBiT-tagged hC5aR1 (human) (UniProt P21730); experiment: split reporter
[2] = molecular target: T1, C-terminally SmBiT-tagged mC5aR1 (mouse) (UniProt P30993); experiment: split reporter
T1 sequence: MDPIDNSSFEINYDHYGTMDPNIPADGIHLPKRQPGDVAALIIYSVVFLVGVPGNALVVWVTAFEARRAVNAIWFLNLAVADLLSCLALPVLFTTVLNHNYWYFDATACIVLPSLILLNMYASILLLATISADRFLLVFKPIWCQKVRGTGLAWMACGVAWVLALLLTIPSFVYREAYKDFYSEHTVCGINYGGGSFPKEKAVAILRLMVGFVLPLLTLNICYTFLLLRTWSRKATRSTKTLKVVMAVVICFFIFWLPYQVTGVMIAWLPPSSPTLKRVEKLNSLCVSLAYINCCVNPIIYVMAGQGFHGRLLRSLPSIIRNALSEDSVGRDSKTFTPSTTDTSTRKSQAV

| binding [1] | binding [2] | Substance |
| --- | --- | --- |
| binds | binds | βarr1 containing an LgBiT tag on its N-terminal end (from UniProt P49407 1-418) |
| binds | binds | βarr2 containing an LgBiT tag on its N-terminal end (from UniProt P32121 1-409) |
